From US10544090B2, “Anthraquinone analogs and methods of making and using thereof” (Georgia State University Research Foundation, Inc., priority 2012, dated 2020)
At least one compound was matched to its structure with a doubt left.

How the values were obtained:
Cos7 = test: Cytotoxicity against cancer cell lines (Example 5), Cos7; assay type: cell-based; settings: Tables 5-12
Description: All of the compounds synthesized were tested against a number of cancer cell lines: Hela KB, Cos7, Molt4, K562, EU1, and T98G. The cancer cell lines vary from leukemia cell lines (Molt4, EU, K562) to solid-state tumor cell lines (Hela, KB, Cos7) and the drug resistant cell lines (T98G).

cancer cells = settings: background statement; read-out: IC50 against number of cancer cells; cited from earlier work

[N-]=[N+]=NCCOc1cccc2c1C(=O)c1c(OCCN=[N+]=[N-])cc(N)cc1C2=O [BW-AQ-123]
IC50 (Cos7): 50 µM

CCOc1cccc2c1C(=O)c1c(OCC)cc(NC(=O)CN)cc1C2=O [BW-AQ-166]
IC50 (Cos7): 50 µM

CCCOC(=O)c1cc(OCCC)c2c(c1)C(=O)c1cccc(OCCC)c1C2=O [BW-AQ-147]
IC50 (Cos7): 50 µM

O=C(O)c1cc(O)c2c(c1)C(=O)c1cccc(O)c1C2=O [Rhein, reference compound]
IC50 (cancer cells): 12 to 120 µM
